Laboratory results: patent publication US6908730B2, “Silver halide material comprising low stain antenna dyes” (Eastman Kodak Company, priority 2003, dated 2005)

Legend:
[1] = Granularity readings on processed strips; conditions: for Relative Granularity: relative granularity at Dmin, each g.u. represents a 5% change, negative = less grainy
Description: Film coating evaluations were carried out in color format on a sulfur-and-gold sensitized 2.6 μm×0.13 μm silver bromide tabular emulsion containing 3.7 mole % iodide. Three emulsion melts were prepared. Each emulsion was heated to 43° C. and sodium thiocyanate (100 mg/Ag mole) was added. After a 5′ hold, 3-(2-methylsulfamoylethyl)-benzothiazolium tetrafluoroborate (35 mg/Ag mole) was added followed by a 2′ hold. Then the first sensitizing dye, I-1 was added. After a 20′ hold, the second sensitizing dye, I-2, was added with a subsequent 10′ hold. This was followed by the addition of sodium aurous dithiosulfate dihydrate (1.89 mg/Ag mole). After a 2′ hold, sodium thiosulfate pentahydrate (0.84 mg/Ag mole) was added, followed by a 2′ hold. The emulsion was held for 15′ at 60° C. After cooling to 43° C., 1-(3-acetamidophenyl)-5-mercaptotetrazole (25 mg/Ag mole) was added with a subsequent hold for 2′. Then either no dye was added (Example 1—1) or 1.3 mmole/mole-Ag of either antenna dye C-1 (Example 1-2) or antenna dye II-1 (Example 1-3) was added followed by a 30′ hold. Next, (2,5-dihydroxy-4-(1-methylheptadecy)-benenesulfonic acid, sodium salt) was added followed by a 2′ hold. This was followed with the addition of Aerosol-OT and a 2′ hold. Then, 4-hydroxy-6-methyl-1,3,3a,7-tetraazaindene, sodium salt, monohydrate, (1 g/Ag mole) was added and then held for 5′. The melt was subsequently chilled at 5° C. Before coating, the emulsion was combined with gelatin and distilled water; and subsequently heated to 40° C. to mix components. Single-layer coatings were made on acetate support. Silver laydown was 807 mg/m^2 (75 mg/ft^2). The silver melt was combined with a coupler dispersion containing a magenta forming coupler M-1 at a laydown of 226 mg/m^2 (21 mg/ft^2). Gelatin laydown was 3228 mg/m^2 (300 mg/ft^2). A hardened overcoat was at 2690 mg/m^2 (250 mg/ft^2) gelatin. […] Granularity readings on processed strips were made according to procedures described in the SPSE Handbook of Photographic Science and Engineering, edited by W. Thomas, pp. 934-939. […]

[2] = Test for dye stain (developer-free pH-10 buffer, bleach-wash-fix-wash); conditions: for Relative Stain: 1.3 mmole/mole-Ag antenna dye, density, status M filter, relative to comparison example with only one dye layer
Description: Film coating evaluations were carried out in color format on a sulfur-and-gold sensitized 2.6 μm×0.13 μm silver bromide tabular emulsion containing 3.7 mole % iodide. Three emulsion melts were prepared. Each emulsion was heated to 43° C. and sodium thiocyanate (100 mg/Ag mole) was added. After a 5′ hold, 3-(2-methylsulfamoylethyl)-benzothiazolium tetrafluoroborate (35 mg/Ag mole) was added followed by a 2′ hold. Then the first sensitizing dye, I-1 was added. After a 20′ hold, the second sensitizing dye, I-2, was added with a subsequent 10′ hold. This was followed by the addition of sodium aurous dithiosulfate dihydrate (1.89 mg/Ag mole). After a 2′ hold, sodium thiosulfate pentahydrate (0.84 mg/Ag mole) was added, followed by a 2′ hold. The emulsion was held for 15′ at 60° C. After cooling to 43° C., 1-(3-acetamidophenyl)-5-mercaptotetrazole (25 mg/Ag mole) was added with a subsequent hold for 2′. Then either no dye was added (Example 1—1) or 1.3 mmole/mole-Ag of either antenna dye C-1 (Example 1-2) or antenna dye II-1 (Example 1-3) was added followed by a 30′ hold. Next, (2,5-dihydroxy-4-(1-methylheptadecy)-benenesulfonic acid, sodium salt) was added followed by a 2′ hold. This was followed with the addition of Aerosol-OT and a 2′ hold. Then, 4-hydroxy-6-methyl-1,3,3a,7-tetraazaindene, sodium salt, monohydrate, (1 g/Ag mole) was added and then held for 5′. The melt was subsequently chilled at 5° C. Before coating, the emulsion was combined with gelatin and distilled water; and subsequently heated to 40° C. to mix components. Single-layer coatings were made on acetate support. Silver laydown was 807 mg/m^2 (75 mg/ft^2). The silver melt was combined with a coupler dispersion containing a magenta forming coupler M-1 at a laydown of 226 mg/m^2 (21 mg/ft^2). Gelatin laydown was 3228 mg/m^2 (300 mg/ft^2). A hardened overcoat was at 2690 mg/m^2 (250 mg/ft^2) gelatin. The described elements were processed for 3.25′ in the known C-41 color process. Sensitometric exposures (0.01 sec) were done using tungsten light with filtration to stimulate a daylight exposure. […]

SMILES	granularity compared with dye C-1 ([1]; in words)	Relative Granularity [1] [g.u.]	Relative Stain [2]	lower dye stain than emulsion having antenna dye C-1 ([2]; emulsion 1-3 versus emulsion 1-2) [%]
C[N+](CCO)(CCO)CCCN1/C(=C/C=C(\C#N)C(=C(C#N)C#N)c2ccccc2)Oc2ccc(-c3ccccc3)cc21 [II-1]	lower granularity	−2	0.021	~30
C[N+](C)(C)CCCN1/C(=C/C=C(\C#N)C(=C(C#N)C#N)c2ccccc2)Oc2ccc(-c3ccccc3)cc21 [Dye C-1, reference compound]	–	0	0.031	–
